In publication PMC4643883:
These are yes or no findings as the source states them, for the method shown. Some entries that bind do so weakly or less than the wild type.

The chains behind the UniProt entries cited, without tags or fusion partners.
UniProt P05205: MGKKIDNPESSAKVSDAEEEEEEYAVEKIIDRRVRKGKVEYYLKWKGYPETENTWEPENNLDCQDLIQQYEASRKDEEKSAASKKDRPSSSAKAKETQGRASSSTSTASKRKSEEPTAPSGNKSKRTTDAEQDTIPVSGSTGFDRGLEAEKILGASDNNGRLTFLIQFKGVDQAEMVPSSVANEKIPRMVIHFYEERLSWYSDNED

Target: Heterochromatic Protein 1 (HP1), D. melanogaster (Drosophila melanogaster) (UniProt P05205)
Test: co-elution from heparin-sepharose; the four co-expressed proteins supplemented with samples of HipHop obtained from a larger volume; heparin-sepharose

B1: HP1-HOAP interacting protein (HipHop), D. melanogaster (protein, UniProt Q7JWP6 1-221)
chain: MASIDEGSRVERRFCAVGNHTLRKPYRQLNNKYLVRFACLLNSEIRAGNLICCKCYTDLVRLYRKKNDNAKRHKMARETAASITDVSGSQSSSHQSAPSLHVSGQSSEFGASYSEGGIVTPDEELCSHRSLSQDSDNVPTTSAAAIQKRQLARANLMVKPSQRLSLAQTTPDCDDYDPNSNLSLNAVNGTRLPHIQPIPKRRPTVLDKQSMDIYLMGTTGG
**Q.** With B1 as the binder, how does the binding read?
**A.** binds
